No constants are given. Whether binding was seen depends on the method and setting. Binding seen in cells or lysates may run through a third protein. Some entries that bind do so weakly or less than the wild type. Where a sequence is shown, tags or fusion partners need not be part of it.
Tests used:
[1] = target: T1, endogenous IKKα (human (endogenous in HCT116)) (UniProt O15111); test: co-IP; HCT116 cells transfected with FLAG-CT55 only, treated with TNF-α (20 ng/ml) for 6 h; immunoprecipitation of endogenous IKKα and IKKβ (blot for CT55) or of FLAG-CT55 (blot for IKKα and IKKβ); protein G-agarose, 4 h at 4 °C
T1 sequence: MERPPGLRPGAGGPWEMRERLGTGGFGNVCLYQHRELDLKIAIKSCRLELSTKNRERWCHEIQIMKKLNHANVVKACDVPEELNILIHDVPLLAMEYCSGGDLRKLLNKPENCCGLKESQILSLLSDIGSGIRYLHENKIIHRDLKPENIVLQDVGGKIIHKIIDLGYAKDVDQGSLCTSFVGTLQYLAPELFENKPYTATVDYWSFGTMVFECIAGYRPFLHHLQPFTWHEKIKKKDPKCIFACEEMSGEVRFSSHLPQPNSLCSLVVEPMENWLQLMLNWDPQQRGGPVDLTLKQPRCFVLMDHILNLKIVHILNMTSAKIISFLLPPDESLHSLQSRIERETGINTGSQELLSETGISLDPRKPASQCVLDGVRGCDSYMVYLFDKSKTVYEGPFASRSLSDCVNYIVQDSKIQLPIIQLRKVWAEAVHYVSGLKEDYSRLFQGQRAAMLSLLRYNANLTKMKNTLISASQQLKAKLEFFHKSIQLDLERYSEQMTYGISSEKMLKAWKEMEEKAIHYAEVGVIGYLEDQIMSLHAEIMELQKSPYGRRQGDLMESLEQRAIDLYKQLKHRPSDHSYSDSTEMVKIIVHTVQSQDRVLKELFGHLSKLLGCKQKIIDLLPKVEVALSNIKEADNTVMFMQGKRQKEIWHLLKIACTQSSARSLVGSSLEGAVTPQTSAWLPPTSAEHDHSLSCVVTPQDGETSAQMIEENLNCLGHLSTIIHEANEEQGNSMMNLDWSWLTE

[2] = target: T2, endogenous IKKβ (human (endogenous in HCT116)) (UniProt O14920); test: as above
T2 sequence: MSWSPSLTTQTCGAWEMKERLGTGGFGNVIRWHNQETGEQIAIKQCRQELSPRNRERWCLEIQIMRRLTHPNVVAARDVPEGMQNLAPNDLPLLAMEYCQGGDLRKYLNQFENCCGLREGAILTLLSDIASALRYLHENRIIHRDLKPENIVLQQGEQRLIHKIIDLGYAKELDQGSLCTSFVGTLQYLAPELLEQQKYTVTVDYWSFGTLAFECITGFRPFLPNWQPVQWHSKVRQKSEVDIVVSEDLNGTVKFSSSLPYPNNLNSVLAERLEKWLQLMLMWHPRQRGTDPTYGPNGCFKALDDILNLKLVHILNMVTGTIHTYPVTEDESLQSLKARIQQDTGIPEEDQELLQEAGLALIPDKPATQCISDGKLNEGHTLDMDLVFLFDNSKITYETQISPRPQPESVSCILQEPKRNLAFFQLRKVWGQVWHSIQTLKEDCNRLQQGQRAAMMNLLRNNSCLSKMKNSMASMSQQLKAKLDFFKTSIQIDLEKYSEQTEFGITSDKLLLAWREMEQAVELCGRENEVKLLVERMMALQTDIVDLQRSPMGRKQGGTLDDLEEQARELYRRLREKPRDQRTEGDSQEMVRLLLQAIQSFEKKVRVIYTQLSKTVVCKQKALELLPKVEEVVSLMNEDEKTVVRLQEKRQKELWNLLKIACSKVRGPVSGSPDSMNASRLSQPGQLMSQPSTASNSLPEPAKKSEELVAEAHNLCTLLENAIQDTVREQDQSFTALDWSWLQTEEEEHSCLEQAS

HA-tagged IKKα = target: T3, HA-tagged IKKα (UniProt O15111); test: co-IP; HCT116 cells cotransfected with FLAG-CT55 and HA-IKKα and IKKβ for 24 h, treated with TNF-α (20 ng/ml) for 6 h; lysates (20 mM Tris-HCl pH 7.4, 150 mM NaCl, 1 mM EDTA) immunoprecipitated with anti-Flag or anti-HA antibody and protein G-agarose, 4 h at 4 °C; western blot
T3 sequence: T1 sequence

HA-tagged IKKβ = target: T4, HA-tagged IKKβ (UniProt O14920); test: as above
T4 sequence: T2 sequence

binding [1]: binds
binding [2]: binds
binding (HA-tagged IKKα): binds
binding (HA-tagged IKKβ): binds
B1: FLAG-tagged CT55 (cancer testis antigen 55) (protein, UniProt Q8WUE5 1-264)
chain: MLRLLRLALAFYGRTADPAERQGPQQQGLPQGDTQLTTVQGVVTSFCGDYGMIDESIYFSSDVVTGNVPLKVGQKVNVVVEEDKPHYGLRAIKVDVVPRHLYGAGPSDSGTRVLIGCVTSINEDNIYISNSIYFSIAIVSEDFVPYKGDLLEVEYSTEPGISNIKATSVKPIRCIHTEEVCITSVHGRNGVIDYTIFFTLDSVKLPDGYVPQVDDIVNVVMVESIQFCFIWRAISITPVHKSSSGFQDDGGLGRPKRERRSQSI

Source: PMC6447546
